In patent US5462861A, “Method for improving enzyme activities with noble gases” (American Air Liquide, Chicago Research Center, priority 1993, dated 1995):

Tested on: β-glucosidase
Experiment: Kinetic analyses, β-glucosidase
Format: biochemical
Details: [S] = 60 micrograms/ml
Description: Absorbance curve data as previously exemplified reveal differences in enzymatic activity under different gas atmospheres both in terms of yield and in terms of rate. Yield can be calculated after equilibrium is reached by comparative curve differencing, and through formal linearization and calculation--which are also necessary for rate calculations. Rate differences are calculated using commercially available computer programs (ENZFITTER, GRAFIT, ENZPACK, PEAKFIT) which transform the initial uv/vis absorbance data curve (in these examples, a power curve) into straight lines (linear regression of power curve). These lines may be expressed as a mathematical equation in which the slope is approximately the rate, and the limit Y-intercept is approximately the yield. […] The examples and figures described below represent these steps in exemplary form.
Table 1 illustrates Michaelis-Menten enzyme kinetics calculations of Vmax and Km, and the rates for each reaction. Vmax is the limiting rate, Km is the Michaelis-Menten constant.
FIG. 46 and Table 2 illustrate the same as FIG. 45 and Table 1, however, for xenon reactions. It is readily apparent that the Vmax and Km for xenon are larger.
FIG. 47, Table 3, FIG. 48 and Table 4 illustrate the first-order power curve regression rate linear transformations for the above air and xenon gassed reactions, showing an approximation to the Michaelis-Menten data, wherein the Xe/Air rate relationship is in the same ratio as above.
FIG. 49, FIG. 50 and Table 5 illustrate the same first-order rate approximation regression linearizations for all gases studied in this run.

Question: With `[Xe]` [Xe, xenon] as the molecule, how does the “Abs [S3]” value (Time 0.0000) read?
Answer: 0.1261

Question: What about the “Abs [S3]” value (Time 15.0000) of the same molecule?
Answer: 0.1590

Question: And the “Abs [S3]” value (Time 30.0000)?
Answer: 0.1928

Question: And the “Abs [S3]” value (Time 45.0000)?
Answer: 0.2217

Question: And the “Abs [S3]” value (Time 60.0000)?
Answer: 0.2514

Question: And the “Abs [S3]” value (Time 75.0000)?
Answer: 0.2811

Question: What about the “Abs [S3]” value (Time 90.0000) of the same molecule?
Answer: 0.3085

Question: What about the “Abs [S3]” value (Time 105.0000) of the same molecule?
Answer: 0.3349

Question: And the “Abs [S3]” value (Time 120.0000)?
Answer: 0.3608

Question: And the “Abs [S3]” value (Time 135.0000)?
Answer: 0.3831

Question: What about the “Abs [S3]” value (Time 150.0000) of the same molecule?
Answer: 0.4065

Question: And the “Abs [S3]” value (Time 165.0000)?
Answer: 0.4300

Question: What about the “Abs [S3]” value (Time 180.0000) of the same molecule?
Answer: 0.4511

Question: What about the “Abs [S3]” value (Time 195.0000) of the same molecule?
Answer: 0.4719

Question: And the “Abs [S3]” value (Time 210.0000)?
Answer: 0.4940

Question: And the “Abs [S3]” value (Time 225.0000)?
Answer: 0.5112

Question: And the “Abs [S3]” value (Time 240.0000)?
Answer: 0.5311

Question: And the “Abs [S3]” value (Time 255.0000)?
Answer: 0.5503

Question: And the “Abs [S3]” value (Time 270.0000)?
Answer: 0.5675

Question: What about the “Abs [S3]” value (Time 285.0000) of the same molecule?
Answer: 0.5842

Question: What about the “Abs [S3]” value (Time 300.0000) of the same molecule?
Answer: 0.6011

Question: And the “Abs [S3]” value (Time 315.0000)?
Answer: 0.6165

Question: And the “Abs [S3]” value (Time 330.0000)?
Answer: 0.6313

Question: What about the “Abs [S3]” value (Time 345.0000) of the same molecule?
Answer: 0.6460

Question: What about the “Abs [S3]” value (Time 360.0000) of the same molecule?
Answer: 0.6588

Question: And the “Abs [S3]” value (Time 375.0000)?
Answer: 0.6711

Question: And the “Abs [S3]” value (Time 390.0000)?
Answer: 0.6834
